Several values for one entry are separate records, joined by “and”; a condition that tells them apart may be missing. Equal entries are not always repeated. Where two headings read alike, the source gives them in different places. The source gives many values for each of these; only a part stands here.
What was measured:
TFG-MET allograft tumors = test: TFG-MET allograft preclinical trial in CD1 mice, Survival cohort (survival, BLI, body weight); type: in vivo, mouse; details: Murine allografts
Experimental: All treatments started 1 week after transplantation. Radio therapy was administered for 6 days, delivering 12 Gy total. Compound treatment was continued for 84 days. […] N = 8 (vehicle arms) or n = 10 (compound-treated arms), respectively. […] First row is depicted in another intensity scale to visualize tumors in all mice. The depicted scale bar indicates the range from 5x10^5-1x10^7 photons/sec/cm^2/sr.
Survival, body weight and tumor burden data from TFG-MET allograft-bearing mice. a,Schematic illustrating the preliminary in vivo study to determine the efficacy of RT alone. b, Survival curve of mice depicted in a. […] Each line represents one mouse. The ends of lines indicate the onset of neurological symptoms and thereby the endpoints.
Bioluminescence signals of in vivo trials.

TRIM24-MET-i PDOX = details: PDX trial cap vs cabo

## CNC(=O)c1ccc(-c2cnc3ncc(Cc4ccc5ncccc5c4)n3n2)cc1F [Capmatinib]
TFG-MET allograft tumors; day 7, drug alone
  BLI signal, individual mice: 1.90E+06 and 2.60E+07 and 2.40E+06 and 2.70E+06 and 1.40E+06 and 1.70E+07
TFG-MET allograft tumors; day 10, drug alone
  BLI signal, individual mice: 7.60E+05 and 3.90E+07 and 3.50E+06 and 6.30E+06 and 4.00E+06 and 5.30E+07
TFG-MET allograft tumors; day 14, drug alone
  BLI signal, individual mice: 3.80E+05 and 1.40E+08 and 1.70E+07 and 7.70E+06 and 8.00E+07
TFG-MET allograft tumors; day 21, drug alone
  BLI signal, individual mice: 1.30E+05 and 2.40E+08 and 1.10E+08 and 2.50E+08 and 1.80E+08 and 1.20E+08
TFG-MET allograft tumors; day 28, drug alone
  BLI signal, individual mice: 1.50E+05 and 4.40E+08
TFG-MET allograft tumors; day 35, drug alone
  BLI signal, individual mice: 1.50E+05
TFG-MET allograft tumors; day 42, drug alone
  BLI signal, individual mice: 1.40E+05
TFG-MET allograft tumors; day 49, drug + RT
  BLI signal, individual mice: 1.10E+08
TFG-MET allograft tumors; day 49, drug alone
  BLI signal, individual mice: 1.30E+05
TFG-MET allograft tumors; day 56, drug alone
  BLI signal, individual mice: 1.20E+05
TFG-MET allograft tumors; day 63, drug alone
  BLI signal, individual mice: 1.20E+05
TFG-MET allograft tumors; day 70, drug alone
  BLI signal, individual mice: 1.30E+05
TFG-MET allograft tumors; day 77, drug alone
  BLI signal, individual mice: 1.23E+05
TFG-MET allograft tumors; day 84, drug alone
  BLI signal, individual mice: 1.03E+05
TFG-MET allograft tumors; day 91, drug alone
  BLI signal, individual mice: 1.21E+05
TRIM24-MET-i PDOX; day 7
  BLI signal, individual mice: 3.40E+07 and 9.75E+06 and 1.52E+06 and 7.12E+07 and 1.10E+07
TRIM24-MET-i PDOX; day 9
  BLI signal, individual mice: 5.27E+07 and 7.33E+07 and 2.46E+07 and 1.25E+07 and 9.36E+07 and 2.95E+07
TRIM24-MET-i PDOX; day 14
  BLI signal, individual mice: 2.89E+07 and 4.47E+07 and 1.07E+07 and 9.58E+06 and 4.41E+07 and 1.75E+07
TRIM24-MET-i PDOX; day 17
  BLI signal, individual mice: 8.30E+06 and 1.08E+07 and 3.11E+05 and 1.16E+07 and 1.46E+07 and 6.19E+06
TRIM24-MET-i PDOX; day 21
  BLI signal, individual mice: 9.07E+06 and 1.26E+07 and 1.15E+07 and 1.31E+07 and 2.09E+07 and 1.02E+07
TRIM24-MET-i PDOX; day 24
  BLI signal, individual mice: 5.56E+06 and 1.03E+07 and 1.36E+07 and 1.28E+07 and 1.09E+07
TRIM24-MET-i PDOX; day 28
  BLI signal, individual mice: 7.43E+06 and 7.15E+06 and 1.24E+07 and 1.98E+07 and 1.79E+07 and 1.04E+07
TRIM24-MET-i PDOX; day 31
  BLI signal, individual mice: 5.43E+06 and 5.33E+06 and 1.51E+07 and 1.57E+07 and 1.53E+07 and 1.65E+07
TRIM24-MET-i PDOX; day 35
  BLI signal, individual mice: 6.89E+05 and 1.12E+07 and 1.52E+07 and 2.26E+07 and 1.45E+07
TRIM24-MET-i PDOX; day 38
  BLI signal, individual mice: 8.82E+04 and 1.26E+07 and 1.66E+07 and 1.77E+07 and 1.67E+07
TRIM24-MET-i PDOX; day 42
  BLI signal, individual mice: 4.52E+04 and 1.34E+07 and 1.70E+07 and 2.43E+07 and 1.81E+07
TRIM24-MET-i PDOX; day 49
  BLI signal, individual mice: 4.09E+04 and 1.40E+07 and 1.15E+07 and 1.29E+07 and 1.04E+07
TRIM24-MET-i PDOX; day 52
  BLI signal, individual mice: 1.20E+04 and 1.19E+07 and 1.06E+07 and 1.39E+07
TRIM24-MET-i PDOX; day 56
  BLI signal, individual mice: 1.66E+05 and 1.62E+07 and 1.51E+07 and 1.46E+07 and 1.01E+07
TRIM24-MET-i PDOX; day 59
  BLI signal, individual mice: 1.66E+04 and 1.45E+07 and 1.32E+07 and 9.28E+06
TRIM24-MET-i PDOX; day 63
  BLI signal, individual mice: 1.00E+04 and 1.56E+07 and 1.50E+07 and 1.67E+07 and 1.73E+07
TRIM24-MET-i PDOX; day 66
  BLI signal, individual mice: 1.88E+04 and 1.21E+07 and 1.10E+07 and 1.09E+07 and 1.15E+07
TRIM24-MET-i PDOX; day 70
  BLI signal, individual mice: 1.29E+04 and 1.30E+07 and 1.18E+07 and 1.05E+07 and 9.45E+06
TRIM24-MET-i PDOX; day 73
  BLI signal, individual mice: 1.25E+04 and 1.36E+07 and 1.40E+07 and 1.57E+07 and 1.37E+07
TRIM24-MET-i PDOX; day 77
  BLI signal, individual mice: 2.38E+04 and 1.11E+07 and 1.27E+07 and 1.95E+07 and 1.41E+07
TRIM24-MET-i PDOX; day 80
  BLI signal, individual mice: 4.09E+05 and 1.22E+07 and 1.34E+07 and 1.51E+07 and 1.21E+07
TRIM24-MET-i PDOX; day 87
  BLI signal, individual mice: 5.57E+04 and 8.07E+06 and 1.19E+07 and 1.62E+07 and 1.30E+07
TRIM24-MET-i PDOX; day 94
  BLI signal, individual mice: 5.16E+06 and 8.75E+04 and 9.14E+06 and 1.32E+07 and 1.22E+07 and 1.18E+07
TRIM24-MET-i PDOX; day 101
  BLI signal, individual mice: 4.91E+06 and 1.63E+05 and 1.19E+07 and 1.18E+07 and 1.62E+07 and 1.28E+07
TRIM24-MET-i PDOX; day 108
  BLI signal, individual mice: 4.82E+06 and 1.31E+05 and 1.13E+07 and 1.14E+07 and 1.60E+07 and 1.16E+07
TRIM24-MET-i PDOX; day 115
  BLI signal, individual mice: 5.08E+06 and 1.25E+05 and 1.05E+07 and 1.14E+07 and 1.96E+07 and 3.49E+07
TRIM24-MET-i PDOX; day 122
  BLI signal, individual mice: 5.08E+06 and 1.38E+05 and 1.17E+07 and 1.22E+07 and 1.74E+07 and 1.49E+07
TRIM24-MET-i PDOX; day 129
  BLI signal, individual mice: 4.08E+06 and 1.16E+05 and 1.09E+07 and 1.17E+07 and 1.27E+07 and 1.03E+07
TRIM24-MET-i PDOX; day 134
  BLI signal, individual mice: 5.84E+06 and 1.72E+05 and 1.58E+07 and 1.63E+07 and 2.20E+07 and 1.51E+07
TRIM24-MET-i PDOX; day 147
  BLI signal, individual mice: 3.52E+06 and 6.31E+04 and 7.64E+06 and 8.61E+06 and 1.16E+07 and 8.65E+06
TRIM24-MET-i PDOX; day 154
  BLI signal, individual mice: 3.35E+06 and 4.61E+04 and 7.03E+06 and 9.83E+06 and 2.79E+06 and 8.33E+06
TRIM24-MET-i PDOX; day 161
  BLI signal, individual mice: 2.37E+06 and 5.50E+04 and 7.89E+06 and 1.18E+07 and 1.19E+05 and 9.30E+06
TRIM24-MET-i PDOX; day 175
  BLI signal, individual mice: 4.80E+06 and 4.72E+04 and 8.07E+06 and 1.66E+07 and 9.11E+04 and 8.38E+06
TRIM24-MET-i PDOX; day 182
  BLI signal, individual mice: 4.95E+06 and 8.47E+04 and 3.64E+05 and 1.77E+07 and 1.39E+05 and 7.49E+06
TRIM24-MET-i PDOX; day 190
  BLI signal, individual mice: 3.72E+06 and 4.67E+04 and 7.67E+06 and 5.60E+07 and 2.11E+05 and 1.19E+07
TRIM24-MET-i PDOX; day 196
  BLI signal, individual mice: 6.43E+06 and 5.18E+04 and 3.56E+06 and 1.05E+08 and 3.94E+05 and 1.53E+07
TRIM24-MET-i PDOX; day 203
  BLI signal, individual mice: 2.74E+07 and 1.05E+05 and 1.04E+07 and 1.46E+05 and 8.75E+07
TRIM24-MET-i PDOX; day 210
  BLI signal, individual mice: 1.86E+08 and 5.35E+05 and 4.51E+06 and 4.00E+05 and 2.59E+08
TRIM24-MET-i PDOX; day 217
  BLI signal, individual mice: 7.75E+04 and 8.09E+06 and 4.47E+05 and 1.91E+08
TRIM24-MET-i PDOX; day 224
  BLI signal, individual mice: 3.08E+05 and 8.83E+06 and 1.05E+09
TRIM24-MET-i PDOX; day 231
  BLI signal, individual mice: 2.46E+05 and 1.03E+07 and 8.02E+08
TRIM24-MET-i PDOX; day 238
  BLI signal, individual mice: 2.87E+05 and 7.79E+06
TRIM24-MET-i PDOX; day 245
  BLI signal, individual mice: 8.09E+04 and 1.06E+07
TRIM24-MET-i PDOX; day 252
  BLI signal, individual mice: 7.86E+04 and 9.30E+06
TRIM24-MET-i PDOX; day 259
  BLI signal, individual mice: 9.94E+04 and 1.03E+07
TRIM24-MET-i PDOX; day 266
  BLI signal, individual mice: 8.77E+04 and 1.13E+07
TRIM24-MET-i PDOX; day 273
  BLI signal, individual mice: 7.17E+04 and 3.23E+07
TRIM24-MET-i PDOX; day 280
  BLI signal, individual mice: 1.06E+05 and 3.14E+07
TRIM24-MET-i PDOX; day 287
  BLI signal, individual mice: 4.68E+04
TRIM24-MET-i PDOX; day 295
  BLI signal, individual mice: 3.46E+04
TRIM24-MET-i PDOX; day 301
  BLI signal, individual mice: 5.01E+06
TRIM24-MET-i PDOX; day 311
  BLI signal, individual mice: 5.67E+04
TRIM24-MET-i PDOX; day 318
  BLI signal, individual mice: 5.50E+04
TRIM24-MET-i PDOX; day 325
  BLI signal, individual mice: 5.13E+04
TRIM24-MET-i PDOX; day 332
  BLI signal, individual mice: 5.78E+04

Source: paper PMC11157767 (Molecular Cancer, 2024)
